PubChem BioAssay AID1259330, Drosophila RNAi Screening Center – 2017

- Aim: 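Cellular ATP after silencing metal-related candidate genes, water instead of metal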
- System: Drosophila S2R+ cells
- Knock-down reagent: long dsRNA against Drosophila genes
- Timing: 5 days (4 days of knock-down, then 1 day after water)
- Treatment: water added as vehicle control after 4 days, 1 day before read-out; no manganese or zinc
- Measured: 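Total ATP measured by CellTiter-Glo luciferase light, given as z-scores from the mean of duplicate plates; 4 days knock-down, then water for 1 day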
- Direction: ATP z-score, pair 1 and ATP z-score, pair 2: higher = more total ATP than other wells
- Rule for the call: 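Active means the ATP z-score of replicate pair 1 lies beyond 1.5 in either direction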
In the full data, 6 (6.3%) are marked active. 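Calls rest on pair 1 alone and pair 2 does not reproduce them; printed active calls all sit near 1.5 or higher.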 The numbers tell different reagents against one gene apart. Names joined by + are all predicted targets of the reagent. Reagent sequences are not shown. Not stated in the record: the amount of reagent.

| gene | dsRNA no. | ATP z-score, pair 1 | ATP z-score, pair 2 | outcome |
| --- | --- | --- | --- | --- |
| Ctr1A | 1 | -0.574 | -0.614 | inactive |
| Ctr1A | 2 | -0.383 | -0.486 | inactive |
| ZnT86D | 1 | 1.01 | -0.157 | inactive |
| ZnT86D | 2 | 0.733 | -0.436 | inactive |
| Cdc50 | 1 | 0.825 | -0.665 | inactive |
| SPoCk | 1 | 0.681 | -0.75 | inactive |
| SPoCk | 2 | -0.612 | 0.571 | inactive |
| Sod2 | 1 | 0.99 | 1.21 | inactive |
| Sod2 | 2 | -0.853 | -1.03 | inactive |
| MFS14 | 1 | 0.323 | -0.593 | inactive |
| MFS14 | 2 | 0.434 | -0.316 | inactive |
| p38a | 1 | -0.326 | -0.487 | inactive |
| p38a | 2 | 0.857 | -0.626 | inactive |
| Zip99C | 1 | -0.22 | -0.224 | inactive |
| Zip99C | 2 | -1.3 | 0.172 | inactive |
| foi | 1 | 1.01 | -0.194 | inactive |
| foi | 2 | 0.427 | -0.451 | inactive |
| iPLA2-VIA | 1 | 0.171 | 1.05 | inactive |
| iPLA2-VIA | 2 | -0.224 | -0.0715 | inactive |
| ATP7 | 1 | -0.00457 | -0.244 | inactive |
| ATP7 | 2 | 0.783 | -0.449 | inactive |
| CG6006 | 1 | 0.863 | -0.186 | inactive |
| CG6006 | 2 | -0.321 | -0.817 | inactive |
| SERCA | 1 | -0.258 | -0.848 | inactive |
| SERCA | 2 | 0.874 | -0.306 | inactive |
| mTor | 1 | 3.06 | 2.59 | active |
| mTor | 2 | 2.66 | 1.73 | active |
| Alk | 1 | -1.01 | -0.724 | inactive |
| Alk | 2 | -0.481 | 0.784 | inactive |
| Alk | 3 | 0.625 | -0.421 | inactive |
| p38c | 1 | 0.779 | -0.767 | inactive |
| p38c | 2 | 0.00437 | 0.331 | inactive |
| Rbcn-3A | 1 | -0.0512 | 0.542 | inactive |
| Rbcn-3A | 2 | -0.0969 | 0.701 | inactive |
| Syx5 | 1 | 2.15 | 1.24 | active |
| Syx5 | 2 | 2.63 | 1.12 | active |
| Vha16-1 | 1 | -0.739 | 1.36 | inactive |
| Vha16-1 | 2 | -0.726 | 0.414 | inactive |
| VhaSFD | 1 | -0.388 | 0.176 | inactive |
| VhaSFD | 2 | -0.915 | -0.258 | inactive |
| VhaSFD | 3 | -0.251 | -1.36 | inactive |
| Mvl | 1 | 0.309 | 1.04 | inactive |
| Mvl | 2 | -0.137 | 0.887 | inactive |
| sp3 | 1 | -0.0158 | -0.823 | inactive |
| sp3 | 2 | -0.823 | -1.03 | inactive |
| Lnk | 1 | 1.2 | -0.53 | inactive |
| Lnk | 2 | -0.63 | 0.711 | inactive |
| Nhe2 | 1 | -0.991 | 0.0402 | inactive |
| Nhe2 | 2 | -0.22 | 0.215 | inactive |
| CHMP2B | 1 | -0.424 | 0.906 | inactive |
| CHMP2B | 2 | -1.18 | -0.815 | inactive |
| Vha68-2 | 1 | -0.411 | -0.0198 | inactive |
| Vha68-2 | 2 | -0.714 | -0.0239 | inactive |
| Catsup | 1 | -0.0742 | 0.605 | inactive |
| Catsup | 2 | 1.43 | -0.525 | inactive |
| Catsup | 3 | -0.396 | -0.418 | inactive |
| Vha44 | 1 | -0.195 | 0.512 | inactive |
| Vha44 | 2 | -0.537 | 0.522 | inactive |
| p38b | 1 | 0.266 | 1.07 | inactive |
| Vha36-1 | 1 | 1.31 | 1.22 | inactive |
| Vha36-1 | 2 | 0.282 | 0.331 | inactive |
| MFS10 | 1 | -0.452 | 0.561 | inactive |
| MFS10 | 2 | -0.485 | -0.367 | inactive |
| rl | 1 | -1.22 | -1.2 | inactive |
| rl | 2 | 0.784 | 0.904 | inactive |
| CG7536 | 1 | 0.209 | -0.265 | inactive |
| CG7536 | 2 | -0.141 | -0.731 | inactive |
| CG6126 | 1 | -0.559 | -0.445 | inactive |
| CG6126 | 2 | -0.387 | -0.411 | inactive |
| Sod1 | 1 | -0.0342 | -0.63 | inactive |
| Sod1 | 2 | -0.18 | -0.854 | inactive |
| MtnA | 1 | -0.927 | 0.761 | inactive |
| Orct | 1 | 1.35 | 1.86 | inactive |
| Orct | 2 | -0.127 | -0.1 | inactive |
| ZnT63C | 1 | -0.571 | 1.04 | inactive |
| ZnT63C | 2 | 1.39 | 0.691 | inactive |
| Pop2 | 1 | -0.881 | 1.19 | inactive |
| Pop2 | 2 | 0.385 | -0.156 | inactive |
| CG16890 + p38b | 1 | 1.5 | -0.378 | inactive |
| alphaCOP | 1 | 1.51 | 0.524 | active |
| alphaCOP | 2 | 1.37 | -0.495 | inactive |
| alphaCOP | 3 | 2.7 | 1.26 | active |
| stw | 1 | -0.253 | -0.202 | inactive |
| stw | 2 | -0.614 | 0.0017 | inactive |
| Sac1 | 1 | -0.812 | -0.565 | inactive |
| Sac1 | 2 | -0.341 | 0.719 | inactive |
| anne | 1 | 0.36 | 0.375 | inactive |
| anne | 2 | 0.0403 | 0.161 | inactive |
| CG42674 | 1 | 0.258 | 1.34 | inactive |
| CG42674 | 2 | -0.829 | -0.72 | inactive |
| Zip102B | 1 | 0.679 | -0.53 | inactive |
| Zip102B | 2 | -0.546 | 1.21 | inactive |
| Atox1 | 1 | 0.908 | -1.14 | inactive |
| eEF1gamma | 1 | -0.489 | 1.65 | inactive |
| eEF1gamma | 2 | 0.618 | -1.12 | inactive |
